According to paper PMC6877618:
No constants are given. Whether binding was seen depends on the method and setting. In cells and extracts the contact can be indirect. Some binding calls cover weakened binding; strength is not graded here.

Chains of the proteins cited; added tags and fusions are not shown.
UniProt P06748: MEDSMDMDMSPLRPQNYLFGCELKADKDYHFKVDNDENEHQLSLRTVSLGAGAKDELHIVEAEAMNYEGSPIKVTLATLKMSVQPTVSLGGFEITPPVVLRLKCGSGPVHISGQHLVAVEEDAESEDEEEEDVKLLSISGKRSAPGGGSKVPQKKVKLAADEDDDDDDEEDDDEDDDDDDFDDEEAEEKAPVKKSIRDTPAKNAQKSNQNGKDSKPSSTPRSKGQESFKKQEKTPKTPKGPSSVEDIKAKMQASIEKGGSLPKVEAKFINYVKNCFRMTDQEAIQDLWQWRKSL

How the values were obtained:
[1] = target: T1, ErbB3-binding protein 1 (EBP1) (human (endogenous in OCI-AML3)) (UniProt Q9UQ80); assay: co-IP; nuclear lysates of OCI-AML3 cells; antibodies (anti-EBP1 or anti-NPM1) cross-linked to magnetic A/G beads with dimethyl pimelimidate, incubated overnight at 4 °C; western blot for EBP1 and NPM1; also done in cells treated with scramble or anti-HOXB-AS3 gapmers (HOXB-AS3 KD decreased the interacting amounts); similar experiments with a mutant NPM1-specific antibody
T1 sequence: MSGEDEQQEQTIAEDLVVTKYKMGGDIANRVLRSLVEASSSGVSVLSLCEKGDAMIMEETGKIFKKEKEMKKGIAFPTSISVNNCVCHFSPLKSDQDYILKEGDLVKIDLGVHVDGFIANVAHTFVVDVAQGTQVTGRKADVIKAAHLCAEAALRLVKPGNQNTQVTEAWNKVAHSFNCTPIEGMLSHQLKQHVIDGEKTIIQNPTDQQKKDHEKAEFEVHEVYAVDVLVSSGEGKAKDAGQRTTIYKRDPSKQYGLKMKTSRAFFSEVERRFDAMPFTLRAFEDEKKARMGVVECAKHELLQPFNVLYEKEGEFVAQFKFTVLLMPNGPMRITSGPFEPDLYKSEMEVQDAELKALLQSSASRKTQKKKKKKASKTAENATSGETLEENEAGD

[2] = target: NPM1 protein (human (endogenous in OCI-AML3)) (UniProt P06748); assay: as above

In the case of “NPM1 protein (from UniProt P06748 1-294)”, the binding [1] is reported as “binds”.

B1: ErbB3-binding protein 1 (EBP1) (protein, UniProt Q9UQ80 1-394)
chain: T1 sequence
With B1 the binding [2] was “binds”.
